No constants are given. Whether binding was seen depends on the method and setting. In cells and extracts the contact can be indirect. Some results given as binding are weak or reduced against the parent protein; the word gives no strength. Values belong to the substance of their own block, whether it stands above or below them.
Columns and labels:
[1] = molecular target: endogenous ClC-2 of the mouse testis (mouse (endogenous in mouse testis)) (UniProt Q9R0A1); assay: co-IP; mouse testis lysates immunoprecipitated with anti-ClC-2 or rabbit IgG, immunoblotting
[2] = molecular target: Myc-tagged human cullin 4B (human) (UniProt Q13620); assay: co-IP; co-expression in HEK293T cells; 10 uM MG132 for 24 h before lysis; IP buffer with 100 mM NaCl, 1% Triton X-100, pH 7.5; protein G sepharose beads pre-coated with anti-Myc or anti-HA, 16 h at 4 °C; immunoblotting
[3] = molecular target: HA-tagged rat cereblon (rat) (UniProt Q56AP7); assay: as above
[4] = molecular target: Myc-tagged human cullin 4A (human) (UniProt Q13619); assay: as above
[5] = molecular target: Myc-tagged mouse ClC-2 (mouse) (UniProt Q9R0A1); assay: as above
[6] = molecular target: endogenous ClC-2 of the rat brain (rat (endogenous in rat brain)) (UniProt P35525); assay: co-IP; rat whole brain lysates immunoprecipitated with anti-ClC-2 (rabbit IgG as control), immunoblotting with anti-ClC-2 or anti-CRBN

By UniProt entry, the sequences of proteins in these tests, tags left out.
UniProt Q9R0A1: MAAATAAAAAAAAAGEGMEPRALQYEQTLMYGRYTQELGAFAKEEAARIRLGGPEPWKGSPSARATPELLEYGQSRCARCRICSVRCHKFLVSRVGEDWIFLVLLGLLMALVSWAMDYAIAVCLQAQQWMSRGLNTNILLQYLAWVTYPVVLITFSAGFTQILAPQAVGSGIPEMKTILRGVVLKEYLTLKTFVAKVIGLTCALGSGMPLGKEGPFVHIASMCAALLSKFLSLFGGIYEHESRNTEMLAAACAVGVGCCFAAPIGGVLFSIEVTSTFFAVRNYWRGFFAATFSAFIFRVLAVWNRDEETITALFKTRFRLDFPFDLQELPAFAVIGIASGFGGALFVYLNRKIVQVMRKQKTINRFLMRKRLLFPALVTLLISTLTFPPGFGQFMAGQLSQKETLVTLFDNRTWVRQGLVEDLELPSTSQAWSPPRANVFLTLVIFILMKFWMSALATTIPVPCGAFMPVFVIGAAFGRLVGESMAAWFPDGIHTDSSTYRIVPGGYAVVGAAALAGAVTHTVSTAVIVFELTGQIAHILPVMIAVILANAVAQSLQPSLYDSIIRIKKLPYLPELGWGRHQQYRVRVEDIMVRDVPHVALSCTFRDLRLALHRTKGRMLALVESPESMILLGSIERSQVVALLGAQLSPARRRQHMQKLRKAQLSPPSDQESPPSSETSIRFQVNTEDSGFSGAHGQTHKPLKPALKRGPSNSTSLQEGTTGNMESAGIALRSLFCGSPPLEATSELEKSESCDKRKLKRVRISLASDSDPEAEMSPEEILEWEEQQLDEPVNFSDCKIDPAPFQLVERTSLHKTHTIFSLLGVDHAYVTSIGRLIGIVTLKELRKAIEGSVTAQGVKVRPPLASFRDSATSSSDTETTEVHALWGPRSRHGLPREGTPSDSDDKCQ
UniProt Q13620: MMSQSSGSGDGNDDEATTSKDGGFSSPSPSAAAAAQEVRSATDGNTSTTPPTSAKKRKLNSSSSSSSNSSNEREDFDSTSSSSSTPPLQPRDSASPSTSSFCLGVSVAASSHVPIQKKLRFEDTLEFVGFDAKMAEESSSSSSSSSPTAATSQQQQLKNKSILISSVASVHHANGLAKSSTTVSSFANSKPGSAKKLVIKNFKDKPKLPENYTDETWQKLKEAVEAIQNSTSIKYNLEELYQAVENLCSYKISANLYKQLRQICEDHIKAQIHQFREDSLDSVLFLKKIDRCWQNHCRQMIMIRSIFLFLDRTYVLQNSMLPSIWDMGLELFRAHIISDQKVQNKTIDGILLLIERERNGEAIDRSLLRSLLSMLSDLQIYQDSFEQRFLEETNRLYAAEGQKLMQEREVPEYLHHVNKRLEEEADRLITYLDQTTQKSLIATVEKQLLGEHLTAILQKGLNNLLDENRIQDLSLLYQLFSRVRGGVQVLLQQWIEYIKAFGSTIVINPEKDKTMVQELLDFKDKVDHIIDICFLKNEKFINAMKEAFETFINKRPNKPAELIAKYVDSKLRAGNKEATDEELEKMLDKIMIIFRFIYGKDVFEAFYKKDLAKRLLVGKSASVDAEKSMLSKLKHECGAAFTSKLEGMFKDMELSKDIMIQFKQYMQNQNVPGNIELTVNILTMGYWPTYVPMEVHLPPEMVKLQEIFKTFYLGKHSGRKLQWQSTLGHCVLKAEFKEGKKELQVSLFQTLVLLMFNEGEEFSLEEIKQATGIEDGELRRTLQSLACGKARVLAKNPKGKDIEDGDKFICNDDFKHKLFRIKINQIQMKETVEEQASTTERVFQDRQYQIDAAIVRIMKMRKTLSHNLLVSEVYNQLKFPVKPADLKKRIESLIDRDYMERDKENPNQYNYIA
UniProt Q56AP7: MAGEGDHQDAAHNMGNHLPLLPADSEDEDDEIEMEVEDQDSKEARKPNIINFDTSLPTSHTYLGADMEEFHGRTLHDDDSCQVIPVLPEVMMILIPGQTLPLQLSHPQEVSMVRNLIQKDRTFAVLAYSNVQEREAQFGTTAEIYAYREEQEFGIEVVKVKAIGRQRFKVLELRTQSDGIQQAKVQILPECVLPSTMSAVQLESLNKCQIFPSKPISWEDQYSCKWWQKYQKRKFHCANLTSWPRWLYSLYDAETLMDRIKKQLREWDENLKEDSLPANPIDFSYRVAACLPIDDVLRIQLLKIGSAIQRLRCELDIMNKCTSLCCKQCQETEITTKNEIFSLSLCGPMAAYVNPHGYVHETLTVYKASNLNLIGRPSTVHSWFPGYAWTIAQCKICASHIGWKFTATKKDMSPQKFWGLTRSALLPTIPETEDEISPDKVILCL
UniProt Q13619: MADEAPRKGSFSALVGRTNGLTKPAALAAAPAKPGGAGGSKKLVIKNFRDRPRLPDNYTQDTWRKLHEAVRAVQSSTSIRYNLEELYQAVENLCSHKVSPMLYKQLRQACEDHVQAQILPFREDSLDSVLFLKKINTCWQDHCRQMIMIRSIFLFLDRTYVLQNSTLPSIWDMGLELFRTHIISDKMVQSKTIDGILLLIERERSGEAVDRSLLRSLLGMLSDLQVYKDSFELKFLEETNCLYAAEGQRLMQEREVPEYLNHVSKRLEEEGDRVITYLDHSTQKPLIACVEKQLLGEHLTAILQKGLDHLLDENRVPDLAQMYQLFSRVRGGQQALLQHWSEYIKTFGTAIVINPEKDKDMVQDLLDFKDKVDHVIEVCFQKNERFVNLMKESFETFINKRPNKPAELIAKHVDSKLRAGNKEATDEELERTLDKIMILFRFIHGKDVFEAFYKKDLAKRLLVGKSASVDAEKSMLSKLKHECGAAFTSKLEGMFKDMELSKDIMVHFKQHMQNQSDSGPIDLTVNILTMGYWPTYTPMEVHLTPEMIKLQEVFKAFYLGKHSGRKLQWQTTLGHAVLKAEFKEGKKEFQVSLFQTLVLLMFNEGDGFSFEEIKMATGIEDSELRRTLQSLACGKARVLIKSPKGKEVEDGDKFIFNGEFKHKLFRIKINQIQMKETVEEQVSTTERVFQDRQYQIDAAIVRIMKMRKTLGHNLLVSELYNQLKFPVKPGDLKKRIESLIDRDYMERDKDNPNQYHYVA
UniProt P35525: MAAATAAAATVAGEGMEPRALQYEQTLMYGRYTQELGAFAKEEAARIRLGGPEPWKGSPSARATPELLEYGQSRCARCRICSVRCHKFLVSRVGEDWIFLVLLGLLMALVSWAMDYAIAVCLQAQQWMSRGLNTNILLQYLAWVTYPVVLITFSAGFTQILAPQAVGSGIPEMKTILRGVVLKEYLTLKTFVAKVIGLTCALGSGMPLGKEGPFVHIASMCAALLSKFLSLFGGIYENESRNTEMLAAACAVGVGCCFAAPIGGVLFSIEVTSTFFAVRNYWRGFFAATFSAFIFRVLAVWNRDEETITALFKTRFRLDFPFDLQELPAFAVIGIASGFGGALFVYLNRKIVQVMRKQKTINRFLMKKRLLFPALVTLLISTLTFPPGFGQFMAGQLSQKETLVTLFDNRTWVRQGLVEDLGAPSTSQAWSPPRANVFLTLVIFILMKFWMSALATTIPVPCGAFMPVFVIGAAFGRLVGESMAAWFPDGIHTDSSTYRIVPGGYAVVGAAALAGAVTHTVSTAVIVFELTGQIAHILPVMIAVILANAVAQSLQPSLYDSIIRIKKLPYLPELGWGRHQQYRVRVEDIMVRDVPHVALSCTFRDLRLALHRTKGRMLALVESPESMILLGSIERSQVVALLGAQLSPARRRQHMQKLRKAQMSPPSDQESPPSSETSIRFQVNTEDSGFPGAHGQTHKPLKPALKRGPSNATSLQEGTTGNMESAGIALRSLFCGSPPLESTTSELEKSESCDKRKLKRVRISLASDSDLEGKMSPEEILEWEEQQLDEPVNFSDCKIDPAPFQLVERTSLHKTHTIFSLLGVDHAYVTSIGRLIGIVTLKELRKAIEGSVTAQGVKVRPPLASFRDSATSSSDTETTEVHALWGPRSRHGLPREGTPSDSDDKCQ
UniProt Q8C7D2: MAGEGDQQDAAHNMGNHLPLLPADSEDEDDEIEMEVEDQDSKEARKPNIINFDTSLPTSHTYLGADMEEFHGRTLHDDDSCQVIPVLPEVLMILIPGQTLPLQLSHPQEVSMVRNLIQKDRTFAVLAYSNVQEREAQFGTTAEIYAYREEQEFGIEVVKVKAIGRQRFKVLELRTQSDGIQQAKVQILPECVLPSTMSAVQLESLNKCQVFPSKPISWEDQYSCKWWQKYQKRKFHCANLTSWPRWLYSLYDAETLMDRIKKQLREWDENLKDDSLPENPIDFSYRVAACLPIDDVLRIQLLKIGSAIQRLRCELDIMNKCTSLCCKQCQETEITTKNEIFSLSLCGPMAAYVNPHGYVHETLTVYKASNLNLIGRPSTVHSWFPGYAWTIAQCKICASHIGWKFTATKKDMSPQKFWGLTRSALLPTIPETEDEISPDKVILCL
UniProt Q16531: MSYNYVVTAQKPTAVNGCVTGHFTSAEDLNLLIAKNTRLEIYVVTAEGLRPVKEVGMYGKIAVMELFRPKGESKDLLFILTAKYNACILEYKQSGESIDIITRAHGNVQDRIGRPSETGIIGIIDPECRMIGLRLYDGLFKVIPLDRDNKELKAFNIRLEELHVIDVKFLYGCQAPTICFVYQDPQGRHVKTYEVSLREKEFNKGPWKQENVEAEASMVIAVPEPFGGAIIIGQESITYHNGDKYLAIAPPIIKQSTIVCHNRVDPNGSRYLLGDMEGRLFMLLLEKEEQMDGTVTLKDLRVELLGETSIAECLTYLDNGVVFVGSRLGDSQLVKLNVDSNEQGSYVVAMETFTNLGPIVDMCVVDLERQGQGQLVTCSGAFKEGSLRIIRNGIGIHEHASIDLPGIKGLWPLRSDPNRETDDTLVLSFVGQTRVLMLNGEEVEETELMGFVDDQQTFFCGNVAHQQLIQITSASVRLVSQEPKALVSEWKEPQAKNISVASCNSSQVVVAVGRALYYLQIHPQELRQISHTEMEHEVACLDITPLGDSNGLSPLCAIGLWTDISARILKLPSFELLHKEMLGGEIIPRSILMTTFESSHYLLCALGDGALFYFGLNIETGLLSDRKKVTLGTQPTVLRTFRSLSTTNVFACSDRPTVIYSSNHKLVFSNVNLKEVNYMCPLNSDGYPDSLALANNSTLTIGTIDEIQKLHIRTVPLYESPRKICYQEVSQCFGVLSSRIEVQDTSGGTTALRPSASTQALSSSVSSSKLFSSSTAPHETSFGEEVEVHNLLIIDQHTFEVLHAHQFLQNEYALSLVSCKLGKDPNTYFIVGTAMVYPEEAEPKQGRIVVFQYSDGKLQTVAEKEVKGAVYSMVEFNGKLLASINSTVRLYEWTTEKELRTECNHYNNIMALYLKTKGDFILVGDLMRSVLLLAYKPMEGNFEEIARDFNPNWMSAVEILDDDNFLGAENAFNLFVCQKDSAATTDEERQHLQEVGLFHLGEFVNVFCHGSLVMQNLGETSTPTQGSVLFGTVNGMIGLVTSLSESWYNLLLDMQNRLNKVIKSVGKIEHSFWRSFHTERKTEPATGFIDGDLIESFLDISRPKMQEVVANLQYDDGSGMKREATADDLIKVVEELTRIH

- binding [1]: binds
Substance: endogenous cereblon of the mouse testis (from UniProt Q8C7D2 1-445)

- binding [2]: binds
- binding [3]: binds
- binding [4]: binds
Substance: N-terminal Flag-tagged mouse ClC-2 (from UniProt Q9R0A1 1-908)

- binding [5]: binds
Substance: Flag-tagged human damage-specific DNA binding protein 1 (from UniProt Q16531 1-1140)

- binding [6]: binds
Substance: endogenous cereblon of the rat brain (from UniProt Q56AP7 1-445)

Reference: publication PMC7348978
